# Earlier results as cited in patent publication US20100048608A1, “Histone Deacetylase Inhibitors for the Treatment of Ocular Neovascular or Edematous Disorders and Diseases” (ALCON, INC., priority 2002, published 2010).
# System: VEGF-induced neovascularization
# Conditions: Deroanne et al. 2002
compound,measurement,value
"O=C(CCCCCCC(=O)Nc1ccccc1)NO [SAHA, suberoylanilide hydroxamic acid]",inhibition of VEGF-induced neovascularization,can inhibit VEGF-induced neovascularization
